This note sets out measurements from US20220049008A1 (MULTITUDE, published 2022).

Amino acid sequences for entries named in this document (tags omitted). A change or cut given only in a name is not applied to a line headed by its entry.
UniProt P16070: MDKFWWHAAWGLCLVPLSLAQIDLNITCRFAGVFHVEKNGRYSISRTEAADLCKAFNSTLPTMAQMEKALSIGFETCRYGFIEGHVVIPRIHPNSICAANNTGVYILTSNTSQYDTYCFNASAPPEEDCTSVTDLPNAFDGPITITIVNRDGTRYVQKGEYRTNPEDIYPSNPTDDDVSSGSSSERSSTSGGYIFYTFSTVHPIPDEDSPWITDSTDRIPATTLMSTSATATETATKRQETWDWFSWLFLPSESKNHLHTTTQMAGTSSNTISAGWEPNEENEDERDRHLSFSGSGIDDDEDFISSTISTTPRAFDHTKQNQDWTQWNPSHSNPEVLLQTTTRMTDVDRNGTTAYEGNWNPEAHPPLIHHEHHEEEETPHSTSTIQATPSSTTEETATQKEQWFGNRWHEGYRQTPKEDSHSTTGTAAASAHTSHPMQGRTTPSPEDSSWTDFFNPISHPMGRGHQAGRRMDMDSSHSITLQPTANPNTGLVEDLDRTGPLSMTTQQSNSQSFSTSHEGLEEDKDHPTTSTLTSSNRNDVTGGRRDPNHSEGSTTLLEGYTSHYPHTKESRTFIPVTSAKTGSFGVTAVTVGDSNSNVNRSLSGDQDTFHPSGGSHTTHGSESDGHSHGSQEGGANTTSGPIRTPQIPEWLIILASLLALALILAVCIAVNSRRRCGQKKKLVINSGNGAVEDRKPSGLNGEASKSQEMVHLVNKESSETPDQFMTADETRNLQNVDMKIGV

These are yes or no findings as the source states them, for the method shown. Some results given as binding are weak or reduced against the parent protein; the word gives no strength. For some assays here: Tags and fused reporters may be left off the sequences shown.

Assay [1] addresses CD44 v7/8 (human CD44 v7/8 splice variant) on CD44+ cells (human) (UniProt P16070). Nature of the assay: flow cytometry on CD44+ A253 cells, antibody titration. On the technique in general: Flow cytometry measures light scatter and fluorescence of single cells or particles in a stream.
The target is the same in assay [2]. Briefly: flow cytometry on A253 cells.
Assay [3] has as its target T1, CD44 v7/8 peptide (…) (human).
T1 sequence (peptide): QAGRRMDMDSSHSIT
Briefly: flow cytometry on D562 cells, peptide competition.

Assay [4] has as its target CD44 v7/8 (human CD44 v7/8 splice variant) on CD44+ cells (human) (UniProt P16070). Nature of the assay: flow cytometry on D562 cells.
For assay [5] the target is unchanged. Briefly: flow cytometry on CD44+ Detroit 562 (D562) cells, one antibody concentration (not given), no peptide.
A further assay concerns the target HIS029. Nature of the assay: peptide blocking in flow cytometry: binding of HIS029 to CD44 v7/8 on D562 cells is blocked by the peptide; peptide concentration not given.

B1: Humanized HIS029 (antibody, V domains shown)
VH: QVQLVQSGSELKKPGASVKVSCKASGYTFTNYWINWVRQAPGQGLEWMGNIYPSDSYTNYNQKFKDRAVFSVDKSVSTAYLQISSLKAEDTAVYYCTKWGDSDYWGQGTTVTVSS
VL: DIQMTQSPSSLSASVGDRVTITCKASQDINRYLRWFQQKPGKSPKTLIYRANRLVDGVPSRFSGSGSGQDYTLTISSLQPEDFATYYCLQYDEFPFTFGQGTKLEIK
notes: also called humanized HIS029 antibody
On to B1, for which the binding result in assay [1] and in assay [2] was “binds” in each case.

B2: HIS029 (antibody, V domains shown)
VH: QVHLQQPGAELVRPGASVKLSCKASGYTFTNYWINWVKQRPGQGLEWIGNIYPSDSYTNYNQKFKDKATLTVDKSSSTAYVHLSSPTSEDSAVYYCTKWGDSDYWGQGTTLTVSS
VL: DIKMTQSPSSMYASLGERVTITCKASQDINRYLRWFQQKPGKSPKTLIYRANRLVDGVPSRFSGSGSGQDYSLTISSLEYEDMGIYYCLQYDEFPFTFGSGTKLEIK
notes: Monoclonal antibody from a hybridoma, V regions amplified with mouse Ig primers; also called anti-CD44 v7/8 antibody; antibody clone HIS029
Regarding B2, the binding result in assay [3], in assay [4], in assay [5], in assay [1] and in assay [2] was “binds” throughout.
Take QAGRRMDMDSSHSIT [CD44 v7/8 peptide (…)]: the binding result with HIS029 is “binds”.
